Experimental findings from PMC9334755 (Cancer Biology & Medicine, 2021) are described below.

The term Vss denotes the apparent volume that relates the amount in the body to the concentration in plasma or blood. A word on the t½: it is how long it takes for the measured level to halve. A lower t½ goes with rapid decline. As a reminder, the Papp is a coefficient for how fast a substance crosses the barrier.

The conditions of data set [1]: rat, in vivo, iv, 5 mg/kg.
Data set [2] is described as follows: Caco-2 permeability assay. The note with it: human. The text has this: protein kinases Beagle dog PK
Kinase Inhibition (%) Kinase Inhibition (%) IV Oral
Species Plasma protein binding (%)
Tcells, and B-cell lymphoma
Compound Caco-2 permeability assay
(1 picture or pasted object on this page, not shown here)
(Caco-2 cells form a polarised layer with tight junctions and transporters.)

Consider `COC/C=C/C(=O)N1CC[C@@H](n2nc(-c3ccc(Oc4ccccc4)cc3)c(C(N)=O)c2N)C1` [SY-1530], for which, in data set [1], the “CL” value was 22.9 mL/min/kg, the “Vss” value worked out at 1.835 L/kg and the “t½” value amounted to 3.08 h.

Turning to `CC(C)NCC(O)COc1ccc(CC(N)=O)cc1` (stereo not shown) [atenolol, reference compound], the Papp in data set [2] was determined as 0.455 ×10⁻⁶ cm/s.
